Measured data: PubChem BioAssay AID1259254 (NCATS, 2017)
The deposit covers about 59,000 reagents; shown is an unselected part. Over the whole deposit, about 1,550 (2.6%) were called active. 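G2 share is only a proxy for re-replication; each gene was hit by three separate siRNAs, and active genes were retested.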 The numbers tell different reagents against one gene apart. Further read-outs or replicates are left out here. No sequences are given here. The record does not give: the amount of reagent.

Purpose: 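Finding genes that stop cells copying their DNA twice in one cycle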 (primary screen)
System: human HCT116 colorectal cancer cells
Reagent: single siRNA against human genes
Duration: 3 days
Measured: 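Imaged Hoechst DNA stain sorts each cell into a cycle phase by DNA amount; per plate, G2 fraction set to 0% for non-targeting and 100% for GMNN siRNA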
Direction: G2 robust z-score: higher = more G2 cells, more excess DNA replication
Hit rule: 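Active siRNAs have a G2 robust z of 5 or more median absolute deviations over the median, which in these data means about 38% or higher of GMNN control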

With KLB (klotho beta) #1, what does the deposit list?
G2 robust z-score: -0.344; activity call: inactive

For KLB (klotho beta) #2, what does the deposit list?
G2 robust z-score: -0.162; activity call: inactive

For KLB (klotho beta) #3, what does the deposit list?
G2 robust z-score: 0.231; activity call: inactive

What did the screen give for LASP1 (LIM and SH3 protein 1) #1?
G2 robust z-score: -0.688; activity call: inactive

How did the screen score LASP1 (LIM and SH3 protein 1) #2?
G2 robust z-score: -0.176; activity call: inactive

Which result is listed for LASP1 (LIM and SH3 protein 1) #3?
G2 robust z-score: 1.31; activity call: inactive

Entries listed so far whose target name starts with L or l (3):
LASP1 (LIM and SH3 protein 1) #1 → G2 robust z-score: -0.688; activity call: inactive
LASP1 (LIM and SH3 protein 1) #2 → G2 robust z-score: -0.176; activity call: inactive
LASP1 (LIM and SH3 protein 1) #3 → G2 robust z-score: 1.31; activity call: inactive

More entries follow.
What is on record for ANAPC13 (anaphase promoting complex subunit 13) #1?
G2 robust z-score: 4.72; activity call: inactive

For ANAPC13 (anaphase promoting complex subunit 13) #2, what was measured?
G2 robust z-score: 0.203; activity call: inactive

Which result is listed for ANAPC13 (anaphase promoting complex subunit 13) #3?
G2 robust z-score: 0.233; activity call: inactive

With RIPOR1 (RHO family interacting cell polarization regulator 1) #1, what does the deposit list?
G2 robust z-score: 0.152; activity call: inactive

With RIPOR1 (RHO family interacting cell polarization regulator 1) #2, how do the results read?
G2 robust z-score: 0.00788; activity call: inactive

What did the screen give for RIPOR1 (RHO family interacting cell polarization regulator 1) #3?
G2 robust z-score: 0.333; activity call: inactive
